PubChem BioAssay AID1347426 (Functional Genomics Laboratory (NCATS/FGL), 2020)
Hit rate of the full screen: of about 31,000 sequences, about 1,400 (4.5%) were called active.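 How the source made its calls: active means median seed-adjusted z-score above 1 or below -1; inactive means the rest.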 This is one part of the list.

Experiment: Novel Modifiers of Survival Motor Neuron (SMN) Protein: Gene Identification via Genome-wide siRNA Screen
Conditions: HEK293T SMN2-luciferase reporter, siRNA knockdown, 72 h; actives lie on both sides
In short: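 Each of three siRNAs per gene is reverse-transfected (1 pmol) into reporter HEK293T cells whose luciferase output tracks SMN protein level. After 72 h culture, ONE-Glo luminescence is control-normalized, log10-transformed and MAD-standardized; Common Seed Analysis deprioritizes seed-driven hits.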

Sequence | median seed-adjusted z-score
CAGUAUCCAUGGUGAUCUATT against ZP2 | inactive: 0.0455
GAUGAUGACUGGUUGAAGATT against PPIE | inactive: -0.699
CCCAGACUCUGUAAGGUGATT against PAQR5 | inactive: -0.0985
ACUUCCCUCCAGUACCUGUTT against SPSB3 | inactive: 0.457
CCGUUUUAAUGGUGUUUCATT against TDG | inactive: 0.0549
GCACAAGACGAACUCAGUATT against UBE2J2 | inactive: -0.341
GGGUCUAUGCAACACCGUUTT against AASDH | inactive: 0.156
GCAAUUUGCUUCUAUAUGATT against PCDHB5 | inactive: 0
GAGUUGGAACAGUCGGCUATT against GRK4 | inactive: -0.267
AAAUAUUCCUCGUGCUAAATT against BRSK1 | inactive: -0.0495
GUUUUAUCCUAUAUUCAUATT against MGST2 | inactive: 0.387
CGCAAGCAAGAGGAACAAATT against PSIP1 | inactive: 0.549
GGUUUACAGCACCAAAUAATT against ARSB | inactive: 0.914
AAGAGAACGUGAACACCUATT against DNAJC5 | inactive: -0.0844
CAACUGUUGGACAACAAAATT against TMEM87B | inactive: -0.51
CUGAGUUACUGGGCCCAGATT against S100A8 | inactive: -0.337
GGUCUUUAAGCCUCACCAATT against ESAM | inactive: 0.314
GCAUCACCAUCCUUCCGCATT against BACE1 | inactive: -0.537
GGAUGAGAUUGUAAUGCAATT against KLHL18 | inactive: -0.126
CACCAGGGAUCACACCUUATT against ZNF304 | inactive: -0.44
CGACAACCCGGAAAGAUUUTT against TRIML1 | inactive: 0
GGAGGAGCUAUUACGAAUATT against KATNA1 | inactive: -0.471
CGUGCAAGGUUCAAAGAGATT against HPSE | inactive: 0.153
AGCUCAUAGCUGACCCAGATT against ZC3H3 | inactive: -0.622
CUGUCUCGCUUCAUCCAUATT against ULK3 | inactive: -0.73
GCGUAUUAGAAGACUUGUATT against LRRC17 | inactive: 0.0234
GAUCCUAAUAUGAAGUUAUTT against FUBP1 | active: -1.52

Rewritten tab-delimited: part of the list above.
Sequence	median seed-adjusted z-score
AGCUCAUAGCUGACCCAGATT against ZC3H3	inactive: -0.622
CUGUCUCGCUUCAUCCAUATT against ULK3	inactive: -0.73
GCGUAUUAGAAGACUUGUATT against LRRC17	inactive: 0.0234

(next part)

Sequence | median seed-adjusted z-score
GUCCAACUGGGAAAAGAUATT against MSRB3 | inactive: -0.218
GCUCCAACAUAACAGAAGATT against NR2C2 | inactive: -0.498
GCUUCGACGGUAUCCUCUATT against KCNA5 | inactive: 0.206
GCUUAACAGUAAUAUGGUUTT against GABRG1 | inactive: 0.312
GGAGAACCACAGUUGCUUUTT against IL17RA | active: -1.29
CCAUCUCGAGGGACUAUAATT against SERPINA3 | inactive: 0.125
GACUUUGGAUUCGAACUAATT against KCTD15 | inactive: 0.982
GCACUAGCCCAACAUCAGATT against ZNF454 | inactive: 0
CAUCCUUUUUCAGUACUAATT against LHX6 | inactive: -0.717
GGAGCCUUUUGAUAUUGAUTT against C1R | inactive: -0.541
CCUUGUCACAGGUCAAUCATT against VWF | inactive: 0.159
GAUCAACGGCUAUAAGGCATT against DSC3 | inactive: 0.18
GGUGCUUCAAUUUAACAGATT against SERPINB10 | inactive: 0.00387
GACAAAUACGUAGAGCUCATT against NDUFA7 | inactive: 0.356
GGACAUGAUUUCCUACAAUTT against DPT | inactive: 0.073
CGUUUGUCCAGAAGCGGUATT against AFMID | inactive: -0.515
GCGUGAUCCUUGCCUCUAATT against GDPD4 | inactive: 0.0109
CCAUCAAAAUCGCAGACUUTT against DDR1 | inactive: -0.166
GGAACUUAUUGAGCUUAUUTT against SWAP70 | inactive: -0.704
CUAUGGGUCUCGACACUUATT against QPCT | inactive: 0.933
GCUGGUACUUCUACCGUCATT against RHBDL1 | inactive: -0.365
GCCUUGUCGAAUUCUGUCATT against FOXO3 | inactive: -0.712
CGUGGGAUCCAAUACAUAUTT against IAPP | inactive: -0.157
GCUCUUUGCCUAUAGCUCATT against RBL1 | inactive: -0.0547
CCAGAUCAGUAGGAUUGAATT against OSMR | inactive: 0.548
CGAUGGGUAUGAGCCUGGATT against ATHL1 | inactive: 0
GAACCGACAAAAGUAGAUATT against RARB | inactive: 0.409
